Test results taken from PMC4207948.
No constants are given. Whether binding was seen depends on the method and setting. Binding seen in cells or lysates may run through a third protein. Some entries that bind do so weakly or less than the wild type. Tags and fused reporters may be left off the sequences shown.

T1: MYC-tagged sodium iodide symporter (NIS-MYC) (UniProt Q92911)
T1 sequence: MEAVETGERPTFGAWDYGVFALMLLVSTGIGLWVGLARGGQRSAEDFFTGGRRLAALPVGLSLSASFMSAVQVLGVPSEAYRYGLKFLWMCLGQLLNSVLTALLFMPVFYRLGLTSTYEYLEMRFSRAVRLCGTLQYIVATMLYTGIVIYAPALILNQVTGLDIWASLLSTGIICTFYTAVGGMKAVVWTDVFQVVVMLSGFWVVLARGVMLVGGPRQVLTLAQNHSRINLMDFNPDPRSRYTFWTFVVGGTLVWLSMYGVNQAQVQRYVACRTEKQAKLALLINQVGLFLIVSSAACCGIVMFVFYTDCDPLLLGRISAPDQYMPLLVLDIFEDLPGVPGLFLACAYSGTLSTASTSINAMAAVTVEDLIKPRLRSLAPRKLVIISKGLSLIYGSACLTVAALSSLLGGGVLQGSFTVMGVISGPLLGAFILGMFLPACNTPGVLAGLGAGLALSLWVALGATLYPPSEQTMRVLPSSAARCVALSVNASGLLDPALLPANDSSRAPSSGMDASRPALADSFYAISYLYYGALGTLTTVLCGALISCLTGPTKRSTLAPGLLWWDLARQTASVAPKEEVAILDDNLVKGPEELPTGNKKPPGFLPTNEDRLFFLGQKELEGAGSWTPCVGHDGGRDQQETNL

B1: PBF phosphorylated at tyrosine 174 (PBF-pY174) (protein, UniProt P53801 33-180)
chain: QEPPGAACSQNTNKTCEECLKNVSCLWCNTNKACLDYPVTSVLPPASLCKLSSARWGVCWVNFEALIITMSVVGGTLLLGIAICCCCCCRRKRSRKPDRSEEKAMREREERRIRQEERRAEMKTRHDEIRKKYGLFKEENPYARFENN
modifications: phosphotyrosine at 174
B2: HA-tagged pituitary tumor-transforming gene-binding factor (PBF-HA), wild type (protein, UniProt P53801 33-180)
chain: B1 chain

Key:
[1] = target: T1, MYC-tagged sodium iodide symporter (NIS-MYC); experiment: co-IP; HeLa cells transfected with PBF-HA and NIS-MYC; IP of NIS-MYC, blot with the pY174 antibody
[2] = target: T1, MYC-tagged sodium iodide symporter (NIS-MYC); experiment: proximity ligation; Duolink In Situ Kit; COS-7 cells transfected with NIS-MYC and PBF-HA (or Y174A), pervanadate 100 μM for 15 min before fixation; mouse anti-myc with rabbit anti-HA or rabbit anti-PBF-pY174; also after PP1 (2 μM, 24 h) or vehicle
[3] = target: T1, MYC-tagged sodium iodide symporter (NIS-MYC); experiment: co-IP; COS-7 cells transfected with NIS-MYC and VO, PBF-HA or Y174A; IP of NIS-MYC with mouse anti-Myc, blot with mouse anti-HA

| Binder | binding [1] | binding [2] | binding [3] |
| --- | --- | --- | --- |
| B1 | binds | binds | – |
| B2 | – | binds | binds |
